# Experimental data as given in publication PMC2669129.
# Sequences of proteins named here, by UniProt entry; tags and fusion partners are left off.
# UniProt P11388: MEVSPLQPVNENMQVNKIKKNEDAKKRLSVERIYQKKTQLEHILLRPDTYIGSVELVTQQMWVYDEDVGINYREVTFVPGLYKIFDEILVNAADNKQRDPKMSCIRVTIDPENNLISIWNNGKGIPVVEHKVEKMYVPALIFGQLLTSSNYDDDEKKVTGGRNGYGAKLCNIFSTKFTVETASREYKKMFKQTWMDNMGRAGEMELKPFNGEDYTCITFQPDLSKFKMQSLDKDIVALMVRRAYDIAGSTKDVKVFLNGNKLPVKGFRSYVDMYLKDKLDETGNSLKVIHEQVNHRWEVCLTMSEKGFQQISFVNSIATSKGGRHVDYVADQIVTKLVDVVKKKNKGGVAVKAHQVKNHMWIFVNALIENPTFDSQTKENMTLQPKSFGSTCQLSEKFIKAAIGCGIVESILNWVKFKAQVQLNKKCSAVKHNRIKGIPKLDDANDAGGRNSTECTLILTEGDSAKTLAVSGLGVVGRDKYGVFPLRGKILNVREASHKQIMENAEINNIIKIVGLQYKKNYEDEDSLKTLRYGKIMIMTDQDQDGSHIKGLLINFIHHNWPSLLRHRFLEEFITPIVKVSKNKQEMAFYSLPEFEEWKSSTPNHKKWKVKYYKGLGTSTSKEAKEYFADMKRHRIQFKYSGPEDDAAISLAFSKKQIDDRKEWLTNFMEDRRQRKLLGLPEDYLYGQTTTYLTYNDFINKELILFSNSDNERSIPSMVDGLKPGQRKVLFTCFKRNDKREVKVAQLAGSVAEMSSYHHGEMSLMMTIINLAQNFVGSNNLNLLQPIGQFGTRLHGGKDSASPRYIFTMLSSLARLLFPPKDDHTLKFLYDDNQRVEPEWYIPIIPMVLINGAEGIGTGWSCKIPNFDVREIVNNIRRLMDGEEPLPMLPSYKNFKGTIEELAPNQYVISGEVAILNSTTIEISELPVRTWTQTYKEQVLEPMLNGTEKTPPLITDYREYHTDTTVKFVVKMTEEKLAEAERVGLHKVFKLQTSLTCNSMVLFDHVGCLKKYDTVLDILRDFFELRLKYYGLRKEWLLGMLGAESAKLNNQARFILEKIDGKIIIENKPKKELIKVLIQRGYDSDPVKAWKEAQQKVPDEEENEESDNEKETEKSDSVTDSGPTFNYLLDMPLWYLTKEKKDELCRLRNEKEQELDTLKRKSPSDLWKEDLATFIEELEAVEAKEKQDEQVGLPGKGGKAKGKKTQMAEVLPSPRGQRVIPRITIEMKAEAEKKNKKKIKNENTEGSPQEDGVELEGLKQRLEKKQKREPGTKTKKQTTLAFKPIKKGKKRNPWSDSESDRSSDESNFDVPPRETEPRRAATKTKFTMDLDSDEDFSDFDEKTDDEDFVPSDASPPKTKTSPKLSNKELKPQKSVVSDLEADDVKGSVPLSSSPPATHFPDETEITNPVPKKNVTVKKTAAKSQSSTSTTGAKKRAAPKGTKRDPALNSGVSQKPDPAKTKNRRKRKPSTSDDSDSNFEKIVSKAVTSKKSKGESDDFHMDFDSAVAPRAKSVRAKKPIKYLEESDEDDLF
# These are yes or no findings as the source states them, for the method shown. Binding seen in cells or lysates may run through a third protein. Some results given as binding are weak or reduced against the parent protein; the word gives no strength.
# Molecular target: Topoisomerase IIα (human (endogenous in MDA-MB-231)) (UniProt P11388)
# Assay: co-IP; Metnase and Topo IIα immunoprecipitated from MDA-MB-231 cells, Western blot; anti-Topo IIα (Topogen); in the presence of 1.0 U/mL DNase I
binder,measurement,value
"Metnase (protein, UniProt Q53H47 1-684) MFAEAAKTTRPCGMAEFKEKPEAPTEQLDVACGQENLPVGAWPPGAAPAPFQYTPDHVVGPGADIDPTQITFPGCICVKTPCLPGTCSCLRHGENYDDNSCLRDIGSGGKYAEPVFECNVLCRCSDHCRNRVVQKGLQFHFQVFKTHKKGWGLRTLEFIPKGRFVCEYAGEVLGFSEVQRRIHLQTKSDSNYIIAIREHVYNGQVMETFVDPTYIGNIGRFLNHSCEPNLLMIPVRIDSMVPKLALFAAKDIVPEEELSYDYSGRYLNLTVSEDKERLDHGKLRKPCYCGAKSCTAFLPFDSSLYCPVEKSNISCGNEKEPSMCGSAPSVFPSCKRLTLETMKMMLDKKQIRAIFLFEFKMGRKAAETTRNINNAFGPGTANERTVQWWFKKFCKGDESLEDEERSGRPSEVDNDQLRAIIEADPLTTTREVAEELNVNHSTVVRHLKQIGKVKKLDKWVPHELTENQKNRRFEVSSSLILRNHNEPFLDRIVTCDEKWILYDNRRRSAQWLDQEEAPKHFPKPILHPKKVMVTIWWSAAGLIHYSFLNPGETITSEKYAQEIDEMNQKLQRLQLALVNRKGPILLHDNARPHVAQPTLQKLNELGYEVLPHPPYSPDLLPTNYHVFKHLNNFLQGKRFHNQQDAENAFQEFVESQSTDFYATGINQLISRWQKCVDCNGSYFD",binding,binds
